Laboratory results from patent US20080096967A1, “Formulations for Injection of Catecholic Butanes, Including Ndga Compounds, Into Animals” (priority 2005, published 2008).
Further values from the same series stand in other lists.

Columns and labels:
[1] = Solubility of M4N in formulations containing modified celluloses (visual inspection); assay type: physicochemical
Description: A 10 mL solution of 50% HP-β-CD (w/v) and 0.5% hydroxypropyl methylcellulose (“HPMC”) (w/v) for use as a solubilizing agent and/or excipient was made as follows: 5.9 mL of water suitable for injection into animals (“WFI”) were placed in a glass beaker containing a stir bar. The beaker was placed on a magnetic plate, and the stir bar was set to stir at medium speed. Five grams of HP-β-CD were added slowly to the stirring WFI, using a spatula to direct the HP-β-CD to the center of the beaker. The HP-β-CD solution was stirred for about 24 hr or until the HP-β-CD was dissolved completely upon visual inspection. The resulting solution measured about 9.4 mL. About 0.6 mL of WFI was added to this resulting solution to reach 10 mL, to produce a solution of 50% HP-β-CD (w/v). Fifty milligrams of HPMC were added to the 50% HP-β-CD solution and stirred for about 1 hr or until the HPMC was dissolved upon visual inspection. The final solution was stirred for about 1 hr and was then stored at room temperature, protected from light. This method of making modified cyclodextrins with modified celluloses may be scaled up or down to obtain the desired volume or concentration of HP-β-CD/HPMC solution. Other modified cyclodextrin/modified cellulose solutions may be similarly made, for example, by substituting HP-β-CD with other modified cyclodextrins, or HPMC with other modified celluloses, in the process described above.
A 10 mL solution of M4N at a concentration of about 10 mg/mL in 50% HP-β-CD/0.5% HPMC was made as follows. About 10 mL of the 50% HP-β-CD/0.5% HPMC solution were added to a glass beaker containing a stir bar. The beaker was placed on a magnetic plate and the stir bar was set to stir at medium speed. About 100 mg of M4N were slowly added to the 50% HP-β-CD/0.5% HPMC in the center of the beaker with the aid of a spatula. The M4N/50% HP-β-CD/0.5% HPMC mixture was stirred for 24 hr or until all M4N was uniformly suspended without any clumps being present. The M4N/50% HP-β-CD/0.5% HPMC mixture was heated at about 90° C. for about 30 min. (or longer if a larger volume of solution was desired, for example, 1 hr at 90° C. for 500 mL of the M4N/50% HP-β-CD/0.5% HPMC mixture), or longer as needed to ensure complete dissolution of M4N. […] The final M4N/50% HP-β-CD/0.5% HPMC solution was stored at room temperature and was kept protected from light.
A 10 mL solution of 5% ethylcellulose (“EC”) in ethanol (w/v) for use as a solubilizing agent and/or excipient was made as follows: 10 mL of 100% ethyl alcohol (“EtOH”) were placed in a glass beaker containing a stir bar, covered by a round Teflon® cover. The beaker was placed on a magnetic plate, and the stir bar was set to stir at medium speed. Five hundred (500) milligrams of EC was added slowly to the stirring ethanol, using a spatula to direct the EC to the center of the beaker so as to prevent EC powder from sticking to the beaker wall. The EC solution was stirred for about 2 hr or until the EC was dissolved completely upon visual inspection. The final solution was stored at room temperature, and was protected from light.
A 10 mL solution of M4N at a concentration of about 20 mg/mL in 5% EC (w/v) (the “EC formulation”) was made as follows. About 10 mL of 5% EC formulation, made as described above, were added to a glass beaker containing a stir bar. The beaker was placed on a magnetic plate and the stir bar was set to stir at medium speed, and covered with a round Teflon® cover. About 200 mg of M4N were slowly added to the 5% EC formulation in the center of the beaker with the aid of a spatula to prevent M4N from sticking to the beaker wall. The M4N/EC mixture was stirred for 2 hr or until all M4N had dissolved or was uniformly suspended without any clumps being present. The M4N/EC mixture was heated at about 60° C. for about 30 min. […]

[2] = M4N stability in 11-14 mg/mL PEG300/HP-β-CD solutions at room temperature (RP-HPLC); assay type: physicochemical; conditions: 24 hour incubation at room temperature, regardless of target M4N or formulation
Description: To support manufacturing specifications, this study examined the 24-hour room temperature stability of combinations of PEG300/HP-β-CD at varying M4N target concentrations. Stock samples of M4N stocks were prepared in 100% PEG 300 at drug concentrations of 33-56 mg/mL at 60° C. as follows.
M4N bulk drug was solubilized to concentrations of 33, 44, 48, 52, 55 and 56 mg/mL (w/w) in PEG 300 using the procedure set forth in Examples 13 and 16, following incubation of at least 2 hours at 60° C. Vigorous vortexing and mixing were necessary for complete solubilization of M4N above 44 mg/mL. The M4N stock solutions were filtered through a 0.45 μm SFCA filter and used within 30 minutes of preparation. Separately, a solution of 40% (w/v) HP-β-CD was prepared in sterile WFI and filtered. Combinations of the 40% HP-β-CD stock and the M4N/PEG 300 stocks were combined in 1.5 mL polypropylene microtubes.
The requisite amount of M4N stock was added to 40% HP-β-CD to yield the final concentrations of drug and excipients listed in Table 28. Samples were gently rotated (˜12 rpm) at room temperature. At 2 and 24 hours of incubation, samples were centrifuged 2 minutes at 13,000 rpm and 50 μL aliquots were removed for RP-HPLC analysis.

COc1ccc(C[C@@H](C)[C@@H](C)Cc2ccc(OC)c(OC)c2)cc1OC [Formulation M4N, meso-1,4-bis(3,4-dimethoxyphenyl)-2,3-dimethylbutane]
Dissolution After Cool-Down ([1]; 50% HP-β-CD, 0.5% HPMC, M4N 1 mg/mL): Y | Dissolution After Cool-Down ([1]; 50% HP-β-CD, 0.5% HPMC, M4N 10 mg/mL): Y | Dissolution After Cool-Down ([1]; EC 5% (w/v) in EtOH, M4N 10 mg/mL): Y | Dissolution After Cool-Down ([1]; EC 5% (w/v) in EtOH, M4N 20 mg/mL): Y | Dissolution After Cool-Down ([1]; EC 5% (w/v) in EtOH, M4N 30 mg/mL): N | Dissolution After Cool-Down ([1]; EC 5% (w/v) in EtOH, M4N 50 mg/mL): N | Dissolution After Cool-Down ([1]; EC 5% (w/v) in EtOH, M4N 100 mg/mL): N | changes in solubility [2]: little if any changes
